For 105 sequences, z-score results are on record in PubChem BioAssay AID1347423 (Functional Genomics Laboratory (NCATS/FGL), 2020).

Screen size: about 52,000 sequences; about 210 (0.4%) were called active.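 How the source made its calls: active means gene whose silencing raises cell survival under the drug, median off-target-corrected z-score across its silencing RNAs 2 or more; inactive means the rest.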 The list shows a part of the results.

This assay can be described thus: Resistance to Poly (ADP-Ribose) Polymerase inhibitor: Gene Identification via Genome-wide siRNA Screen. Conditions: mouse BRCA2 R2336H ES cells, olaparib, CellTiter-Glo viability; hits give high values. The essentials:
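Mouse BRCA2 R2336H ES cells were reverse-transfected with siRNA (20 nM final), treated at 48 h with 500 nM olaparib, and read by CellTiter-Glo after 72 h. Scores: MAD-based z per siRNA, median per gene, seed off-target correction.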
Consider GGCUGUUGUCAAUCCAGUUTT against Krtap5-4, for which the z-score is inactive: 0.595.
The same measure for CCACUAUGGCGACCAGAUUTT against Mfap2: inactive: -3.19; for GGGAACAAUCAAAAUUGGATT against Mta3: inactive: 0.215.
For the sequence GGCUUUCUCCCAGCAAUAGTT against Scrt1, the z-score is inactive: -0.609.
The same measure for GGAAUUCAUUGAGUCUUGUTT against Kcnip2: inactive: 1.9; for GGUUUGAAGAUGAUGCCUCTT against Nfkbil1: inactive: 0.415; for CGACAGCAAAGUGGUUAAGTT against Upk2: inactive: -0.556.
For GCAGUUACACAUUUGAACATT against BC024479 the value was inactive: -0.253; for “GGUCAUCGCUCAGUUAGAATT against 9630041N07”, inactive: -1.04; for GGUCAUCAUGAGCCCAUGUTT against Olfr1341, inactive: 0.0536.
The same measure for “GGAGACUGUGAUUGAGAUGTT against 2500002L14Rik”: inactive: 0.168; for GGGUGCUACAAAAUUUGGATT against Arfgap1: inactive: 1.28.
GGUUGUAGGAGAGGUAGAGTT against Sh3kbp1: the z-score was inactive: 1.81.
“GGGCUUUCUUGGUUUUAUCTT against 8430408G22Rik”: the z-score was inactive: 1.33.
The same measure for GCUCUGUUAAGGAAGAACATT against Safb2: inactive: -0.406; for GGUCGAAGUAUUGGAAAAUTT against Hesx1: inactive: 1.5.
Take CCUACCUCACCGUAACUGUTT against Celsr1: the z-score was inactive: -2.25.
Take CCUGGAGUACAUAAAAGAUTT against Sh2d1a: the z-score is inactive: -0.524.
The same measure for CCGGGCAAUUCAGCUGAACTT against Igsf3: inactive: 0.0966.
In the case of GCUCUUAAGAGUCACCAAGTT against Wbscr27, the z-score was inactive: -0.546.
GUACUUUCCGCUGUUCCUCTT against Ltc4s: the z-score was inactive: -0.00675.
The same measure for CCCACAGUGCAAAAAUGACTT against Olfr663: inactive: 0.145; for GGAAGACUGGGAAUAUAUCTT against Gga3: inactive: -2.8.
The same measure for GGUCCACUGAUUCUGAUAATT against BC013476: inactive: -0.156; for GCCUCGUGUUGAAUCUUAATT against Pmp22: inactive: -0.632.
For CGAUCAUCGGCAUGUAUACTT against LOC333669 the value was inactive: 0.0787; for “CCACAAGGUUCACAGAAAUTT against 2810048G17Rik”, inactive: 0.787; for “GGGUAGCUAAGAAAAAGAUTT against C030048B08Rik”, inactive: -0.549.
In the case of CCUCAUUGUACAAGUAUCUTT against Hnt, the z-score was inactive: -1.42.
In the case of GGUCUUGGUGUAUAACAACTT against Rpo1-1, the z-score was inactive: -1.22.
For the sequence CCUUUGUUACCACCACCAUTT against Olfr1331, the z-score was inactive: 0.203.
As to GGUGGUAACCAAUCAUUACTT against Cd200r1, the z-score was inactive: 2.21.
As to GGAAAUCAAGGAGCAGGAATT against S100b, the z-score was inactive: 0.653.
Regarding GGGAGCCACAUACAAAUACTT against AI326906, the z-score was inactive: 1.11.
On to GGCUUGUUCCUGUUCCUCUTT against Ndufc2, for which the z-score is inactive: 0.204.
The same measure for GGCAUCAAGCAAUUCACUCTT against Zfp455: inactive: 0.222.
GAACUGUACCAAACCCUACTT against Klk24: the z-score is inactive: -0.536.
Turning to CCCACCCAGGCAAUAAAAUTT against Fstl3, the z-score is inactive: -0.417.
For GGACAAAAGGCUGAGCAUCTT against Flt1 the value was inactive: -0.772; for “GGGAGAAUCGAUCCUUCACTT against 2310004L02Rik”, inactive: 1.03; for GCGAUUUGGCUUGCCAAGATT against Zfp622, inactive: -1.62.
The same measure for GGCUACAUCCCUGAACACUTT against Ndufb5: inactive: 0.655; for CGCAAUCAUGAGCUUCGUCTT against Peci: inactive: 0.8.
For GGUCAGUUGAGAUGUUUUUTT against Pag the value was inactive: 0.105; for GGAUGUUACAAAAGUCUGGTT against Wbscr16, inactive: -0.504; for GGGAAUUUUUGUGGGUGAATT against Bbs2, inactive: 0.673.
In the case of “GGAUUUGCCUUAAAAAAUCTT against 6330411N01Rik”, the z-score is inactive: 0.296.
In the case of GUGCCUAGUUUUCUGCAUGTT against V1rj3, the z-score is inactive: 1.61.
For “GGACCAGUUAUCCUCACUGTT against 1810011O16Rik” the value was inactive: 0.306.
The same measure for GGAAGUAAAAGAGGCUUUUTT against Olfr432: inactive: -1.2.
The same measure for GGGUGAGACUUUUAUUAUUTT against AU040950: inactive: 2.08; for GGACCUGAGAGUUGUUUUGTT against Faim: inactive: 0.129; for GGUAAACUCAAGUUUUCAGTT against Pib5pa: inactive: 1.26.
As to CCGAAUCUGUCGUCAAGGUTT against Trem3, the z-score is inactive: -0.346.
Turning to CCUGGUAUCCAAGAGGAAGTT against Myt1, the z-score was inactive: 0.477.
With GGCAAAGUGGUAGAAAAAATT against Lincr, the z-score is inactive: -1.02.
For CGGCCAUUUACCAUACGUUTT against Slc15a1 the value was inactive: 1.82; for GGAGAUAAGAGAUCACAUCTT against BC019806, inactive: 0.00125; for GGUCCGUCUGGUAAAAAGATT against Catna2, inactive: 0.794.
For GGGUUUGGGAACAUCGAUGTT against Angptl2, the z-score was inactive: -0.724.
As to CGGAGUUGGGAUUUACCAGTT against Pdir, the z-score was inactive: 0.695.
For “GGAUUAAAGGGUAACUUAGTT against 6530421E24Rik” the value was inactive: -2.16.
With CCCGGUCAUAUAUGCCAUCTT against Gpr135, the z-score is inactive: 2.9.
On to GCCGUUGAGUAUAAAACUCTT against Stfa1, for which the z-score is inactive: 0.335.
For CCACUCAGGAAAUGUUAAGTT against Mrpl53 the value was inactive: 0.297; for GCCUGUGGAGCCAAUCUACTT against Ephx2, inactive: 0.219.
Consider GGAUUCACCUGUUAUCUUUTT against Tapbpl, for which the z-score is inactive: -0.499.
The same measure for GCUUCAAACCUCUUGCUCATT against Epb4.9: inactive: 0.527; for GCCUAAGGAUCCUGGGUUATT against BC061259: inactive: -1.76.
With GGCUCUGUUGUCCUUGACCTT against Epb4.1l4a, the z-score was inactive: 0.786.
For GGUGAUCCCGAAUGAUGAATT against MGC107514 the value was inactive: 1.13; for GGCCAUCUUUGACAGUGCUTT against Dnahc1, inactive: -0.103; for GGUACCAUCACGUUGUGUATT against M6pr, inactive: -1.35.
With CCACAAAUAUAUGGGUUACTT against Tbc1d5, the z-score was inactive: -0.687.
For the sequence GGGAGAACGGGUUCUCUUUTT against Sox12, the z-score was inactive: 0.0917.
As for GGAAAUGUUGCAUUUUUGATT against Ltf, the z-score is inactive: 1.34.
On to CCUUUCAGGCCAAUUGGCATT against Ube2l6, for which the z-score is inactive: 0.111.
Consider GGACUCAAAAGUCCCUGUATT against Gpr97, for which the z-score is inactive: -1.4.
Consider CCUAUGAAGGACACAGACUTT against Trim9, for which the z-score is inactive: -0.241.
GGCAGCUGAGCAUAAUCCCTT against Rbm21: the z-score is inactive: -0.111.
For GACUAGGACACUGACCCUCTT against Ifna12 the value was inactive: 1.65; for GGCAAAUAUAUCCUCUUUGTT against Gpx3, inactive: -0.911.
Consider GAUGCUAUCUGGCUUUCUUTT against Olfr981, for which the z-score is inactive: -0.356.
“CCAACACCAUUCAAAUAGATT against 6430546I09”: the z-score was inactive: 3.41.
For GCACUUCGAAUGUACUGUCTT against Gnrh2 the value was inactive: 1.05; for GGAACAUGAAGACUAUACATT against BB049667, inactive: 0.538; for GCACAGAAAUAUUAAAGUCTT against Foxp4, inactive: -0.504.
On to AAAGUAAGAGACUACGCUCTT against H2-Q2, for which the z-score was inactive: 0.455.
As for “CGGGCUGCUACGAAAAAGUTT against 9430079M16Rik”, the z-score is inactive: -2.22.
Regarding CCAUGGACUUUCUCGAAGATT against Ceacam11, the z-score is inactive: 0.519.
The same measure for GGGCGAGUUCAACUGAGACTT against Hapln3: inactive: -0.222; for GGAAACAAGGAUAUUCUUUTT against Fanca: inactive: 1.22.
GCCAUGUGUCUCACAAGUCTT against Sprr1b: the z-score was inactive: -0.47.
For GGAAUCGGUGGCCAUCAAUTT against Olfr771 the value was inactive: 0.782; for GGGAUUUGCCAAAGAAUAGTT against AI597479, inactive: -0.308; for GGAAUGGUUAUGAAUUUGATT against Pts, inactive: -0.253.
The same measure for GGGCAUUAAGACAAAGAGUTT against D6Wsu176e: inactive: 0.725.
The same measure for GGUGAGAAGAUGUCUCUUATT against Olfr103: inactive: 0.149; for GCAAGUCAUGCGAAUACAATT against Chrdl1: inactive: -2.07.
“GGAGCGAUUUGAUGAUAUGTT against 1110034C04Rik”: the z-score was inactive: -0.0765.
Consider GGAUGAAAUGGAAGAAAAUTT against Barx1, for which the z-score was inactive: -0.676.
The same measure for “GGGACCUGACCUUACUCAUTT against 9330132O05Rik”: inactive: -2.82.
Consider GGAGAUCCACUUCCUCAAGTT against B3gnt7, for which the z-score was inactive: 0.389.
As for GCCAUUGGUUGGGAUAAACTT against Fancl, the z-score was inactive: 1.19.
The same measure for CCAUUACACAAAGUUUUGCTT against Stard6: inactive: 0.874.
